Common to all, as to assay: EMSA
Background: In EMSA bound probe runs differently from free probe, usually more slowly.

The target in data set [1] is T1, HCF152/3&4 (Arabidopsis thaliana) (UniProt Q9SF38).
T1 sequence: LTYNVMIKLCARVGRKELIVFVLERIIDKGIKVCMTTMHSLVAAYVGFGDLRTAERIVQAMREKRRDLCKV
Conditions: G>U>A; 200 nM protein; purified recombinant protein; protein details: N-terminal thioredoxin, C-terminal His; label: 5'-32P.

The target in data set [2] is T2, HCF152/7&8 (Arabidopsis thaliana) (UniProt Q9SF38).
T2 sequence: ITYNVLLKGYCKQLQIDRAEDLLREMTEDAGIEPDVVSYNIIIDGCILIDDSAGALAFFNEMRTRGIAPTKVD
Conditions: A>U>G; 200 nM protein; purified recombinant protein; protein details: N-terminal thioredoxin, C-terminal His; label: 5'-32P.

The target in data set [3] is T3, HCF152/2&3 (Arabidopsis thaliana) (UniProt Q9SF38).
T3 sequence: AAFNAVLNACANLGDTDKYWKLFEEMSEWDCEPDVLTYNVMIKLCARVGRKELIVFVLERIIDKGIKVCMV
Conditions: A>G>U; 200 nM protein; purified recombinant protein; protein details: N-terminal thioredoxin, C-terminal His; label: 5'-32P.

For data set [4], the target named is T4, HCF152/5&6 (Arabidopsis thaliana) (UniProt Q9SF38).
T4 sequence (limits assumed): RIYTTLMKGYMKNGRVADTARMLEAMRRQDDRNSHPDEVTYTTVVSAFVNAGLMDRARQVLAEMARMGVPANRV
The settings on record: A>G>U; 200 nM protein; purified recombinant protein; protein details: N-terminal thioredoxin, C-terminal His; label: 5'-32P.

In data set [5] the target is T5, HCF152/9&10 (Arabidopsis thaliana) (UniProt Q9SF38).
T5 sequence: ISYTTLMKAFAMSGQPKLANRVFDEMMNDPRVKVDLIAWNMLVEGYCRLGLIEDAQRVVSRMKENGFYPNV
The settings on record: A>G>U; 200 nM protein; purified recombinant protein; protein details: N-terminal thioredoxin, C-terminal His; label: 5'-32P.

For data set [6], the target named is T6, 5&6/5-K8A (Arabidopsis thaliana) (UniProt Q9SF38).
T6 sequence: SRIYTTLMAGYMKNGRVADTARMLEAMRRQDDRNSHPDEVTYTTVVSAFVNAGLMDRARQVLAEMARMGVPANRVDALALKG
The settings on record: position 8 substitution reduces affinity 10-fold or more (position-level statement); purified recombinant protein; protein details: N-terminal thioredoxin, C-terminal His; label: 32P-UTP internal.

The target of data set [7] is T7, HCF152/6&7 (Arabidopsis thaliana) (UniProt Q9SF38).
T7 sequence (limits assumed): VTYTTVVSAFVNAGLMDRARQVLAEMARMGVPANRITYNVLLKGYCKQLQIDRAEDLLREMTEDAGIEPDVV
Conditions: ND, below detection limit; purified recombinant protein; protein details: N-terminal thioredoxin, C-terminal His; label: 32P-UTP internal.

In data set [8] the target is T8, 5&6/5-T4E (Arabidopsis thaliana) (UniProt Q9SF38).
T8 sequence: T4 sequence (limits assumed) with T4E
The settings on record: position 4 substitution reduces affinity 10-fold or more (position-level statement); purified recombinant protein; protein details: N-terminal thioredoxin, C-terminal His; label: 32P-UTP internal.

Data set [9] addresses T9, 5&6/5-T4N (Arabidopsis thaliana) (UniProt Q9SF38).
T9 sequence: T4 sequence (limits assumed) with T4N
The settings on record: position 4 substitution reduces affinity 10-fold or more (position-level statement); purified recombinant protein; protein details: N-terminal thioredoxin, C-terminal His; label: 32P-UTP internal.

The target in data set [10] is T10, 5&6/5-K12A (Arabidopsis thaliana) (UniProt Q9SF38).
T10 sequence: T6 sequence with A9K, K13A
The settings on record: position 12 substitution reduces affinity 10-fold or more (position-level statement); purified recombinant protein; protein details: N-terminal thioredoxin, C-terminal His; label: 32P-UTP internal.

Data set [11] addresses T11, 5&6/5-K8N (Arabidopsis thaliana) (UniProt Q9SF38).
T11 sequence: T6 sequence with A9N
The settings on record: position 8 substitution reduces affinity 10-fold or more (position-level statement); purified recombinant protein; protein details: N-terminal thioredoxin, C-terminal His; label: 32P-UTP internal.

Data set [12] addresses T12, 5&6/5-K12N (Arabidopsis thaliana) (UniProt Q9SF38).
T12 sequence: T4 sequence (limits assumed) with K12N
The settings on record: ND; purified recombinant protein; protein details: N-terminal thioredoxin, C-terminal His; label: 32P-UTP internal.

Data set [13] has as its target T13, 5&6/5-G9A (Arabidopsis thaliana) (UniProt Q9SF38).
T13 sequence: T6 sequence with A9K, G10A
The settings on record: position 9 substitution reduces affinity 10-fold or more (position-level statement); purified recombinant protein; protein details: N-terminal thioredoxin, C-terminal His; label: 32P-UTP internal.

Data set [14] deals with T14, 5&6/6-N12R (Arabidopsis thaliana) (UniProt Q9SF38).
T14 sequence: T4 sequence (limits assumed) with N50R
Conditions: Kd=ND; purified recombinant protein; protein details: N-terminal thioredoxin, C-terminal His; label: 32P-UTP internal.

The target in data set [15] is T15, 5&6/5-R1I (Arabidopsis thaliana) (UniProt Q9SF38).
T15 sequence: T4 sequence (limits assumed) with R1I
Conditions: position 1 substitution reduces affinity 10-fold or more (position-level statement); purified recombinant protein; protein details: N-terminal thioredoxin, C-terminal His; label: 32P-UTP internal.

For data set [16], the target named is T16, 5&6/5-R1A (Arabidopsis thaliana) (UniProt Q9SF38).
T16 sequence: T4 sequence (limits assumed) with R1A
The settings on record: position 1 substitution reduces affinity 10-fold or more (position-level statement); purified recombinant protein; protein details: N-terminal thioredoxin, C-terminal His; label: 32P-UTP internal.

For data set [17], the target named is T17, 5&6/5-G9L (Arabidopsis thaliana) (UniProt Q9SF38).
T17 sequence: T6 sequence with A9K, G10L
Conditions: position 9 substitution reduces affinity 10-fold or more (position-level statement); purified recombinant protein; protein details: N-terminal thioredoxin, C-terminal His; label: 32P-UTP internal.

The results in this text go back to patent US20170260242, “METHOD FOR MODIFYING RNA BINDING PROTIEN USING PPR MOTIF” (Kyushu University, National University Corporation, published 2017).

Positions count from the first letter of the chain named. For part of these data: A weaker result is weaker than the reference pair of the same experiment. Tags and fusion partners may be left off the protein sequences shown.

Take AUCGUUUUUUUUUUUUUUUUUUUUUUUUU [LU25]: the binding result in [1], in data set [2], in data set [3], in data set [4] and in data set [5] was “binds more weakly” in each case.
What is called Kd is the concentration at which binding is half-saturated. As to “CUGGAUGGAAUUUCAGUGAAUUAGACUGAGAAGAAUCUUGAAGUUCUAGCUUUUAGCUCGAUACAAAAAAGUAAAGUAUGCAGGUCUAACAAUUUUAGCCUAUUCUCCUUUGGUAGUUCG [BD120 (petB)]”, the binding result in data set [6], in data set [8], in data set [9], in [10], in data set [11] and in data set [13] was “binds more weakly” throughout. For the same sequence, the binding result in [15], in [16] and in [17] was “binds more weakly” each time. The Kd in data set [7], in data set [12] and in [14] was greater than 3.75 µM in each case.
As for AUCGAAAAAAAAAAAAAAAAAAAAAAAAA [LA25], the binding result in data set [1] was “binds more weakly”.
